The exact form of at least one protein or probe is not confirmed. At least one verdict was read from the data and is not stated in words by the source.
Columns and labels:
[1] = test system: p50/RelA-FL: p50 subunit (39-350) + RelA-RHD (no TAD); test: fluorescence anisotropy; settings: 5' 5AmMC6 amino linker; SEC buffer 25 mM Tris pH 7.5, 150 mM NaCl, 0.5 mM EDTA, 1 mM DTT (FA buffer not stated explicitly; 5 nM DNA, RT incubation, read at 25 C); recombinant protein; protein details: N-terminal His6,none; label: 5' fluorescein (FITC); folded or branched DNA
[2] = test system: p50/RelA-FL: p50 subunit (39-350) + RelA-FL (RHD + TAD); test: fluorescence anisotropy; settings: 5' 5AmMC6 amino linker; SEC buffer 25 mM Tris pH 7.5, 150 mM NaCl, 0.5 mM EDTA, 1 mM DTT (FA buffer not stated explicitly; 5 nM DNA, RT incubation, read at 25 C); recombinant protein; protein details: N-terminal His6,none; label: 5' fluorescein (FITC); folded or branched DNA

Sequence: GGGAAATTCCTCCCCCAGGAATTTCCC [IFN-beta hairpin]
- binding result [1]: binds
- binding result [2]: binds

Sequence: AGAGAAATCCCTCCCCCAGGGATTTCTCT [NFKBIA site 2 hairpin]
- Kd [1]: 21 nM
- Kd [2]: 6 nM

Sequence: TGGAAATTCCCTCCCCCAGGGAATTTCCA [NFKBIA site 1 hairpin]
- binding result [1]: binds
- binding result [2]: binds

Sequence: GGGAGTTTCCTCCCCCAGGAAACTCCC [RANTES hairpin]
- binding result [1]: binds
- binding result [2]: binds

Sequence: GGGACTTTCCTCCCCCAGGAAAGTCCC [HIV-LTR hairpin]
- binding result [1]: binds
- binding result [2]: binds

— publication PMC9440430, “An intrinsically disordered transcription activation domain increases the DNA binding affinity and reduces the specificity of NFκB p50/RelA”
